Measurements published in PubChem BioAssay AID1487 (National Center for Advancing Translational Sciences (NCATS), 2009).
The list shows a part of the results. These are further read-outs of the screen, such as a control signal, another cell line or another target. No call is given for them. The list favours compounds with an active or inconclusive main result. The note in brackets gives the kind of curve behind each potency; many fits are weak.

Test: qHTS Assay for Modulators of Lamin A Splicing
Settings: HeLa LMNA splicing GFP/RFP minigene ratio, 48 h
How it was run: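 Read-out is the ratio of GFP to DsRed2 object intensity, acquired by 488 nm laser-scanning cytometry on HeLa lamin A-EGFP minigene reporter cells. Compound incubation 48 hrs at 37 °C in Opti-MEM with 2% FBS; DMSO 0.5% final.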

[1] = measured here: RFP viability control channel
[2] = measured here: GFP splicing reporter channel

With `O=[N+]([O-])c1cc(C(F)(F)F)ccc1Sc1ccc2ccccc2n1` the AC50 [1] was 31.6 µM [rising, single point].
In the case of `O=C(CCN1CCN(Cc2ccccc2)CC1)Nc1ccc(OCc2ccccc2)cc1`, the AC50 [1] was 20 µM [rising, single point].
In the case of `CCN(CC)S(=O)(=O)c1cccc(C(=O)N/N=C/c2ccc([N+](=O)[O-])o2)c1`, the AC50 [2] was 0.501 µM [falling, full curve, poor fit] and the AC50 [1] was 3.16 µM [falling, partial curve, poor fit].
In the case of `Cc1ccc(S(=O)(=O)/N=C2/C=C(Sc3ncn[nH]3)C(=O)c3ccccc32)c(C)c1`, the AC50 [2] was 35.5 µM [falling, single point] and the AC50 [1] was 35.5 µM [falling, single point].
In the case of `Cc1cc(-c2c(C)[nH]n(-c3ccc(Cl)cc3)c2=O)n(-c2ccccc2)n1`, the AC50 [1] was 0.141 µM [rising, full curve, poor fit].
In the case of `Cn1c(=O)c(CCc2ccccc2)nc2cnc(OCc3ccccc3)nc21`, the AC50 [2] was 2.51 µM [falling, partial curve, poor fit] and the AC50 [1] was 7.08 µM [falling, partial curve, poor fit].
With `COc1cc(-c2nc(CN(C)Cc3nnc(C)o3)c(C)o2)ccc1F` the AC50 [2] was 4.47 µM [falling, full curve, poor fit].
For `CN1CCN(c2nc(-c3ccncc3)nc3ccccc23)CC1`, the AC50 [1] was 17.8 µM [rising, single point].
In the case of `Cc1onc(-c2ccccc2)c1C(=O)N1CCCSC1=Nc1ccccc1`, the AC50 [1] was 15.8 µM [rising, single point].
With `CCOc1ccccc1Nc1nnc(SC(C)C(=O)Nc2nc(-c3ccccc3)cs2)s1` (stereo not drawn) the AC50 [1] was 11.2 µM [rising, partial curve].
For `Cc1ccc(NC(=O)C(=O)c2c(-c3ccccc3)cc3ccccn23)cc1S(=O)(=O)N1CCOCC1`, the AC50 [1] was 11.2 µM [rising, single point].
For `O=C(CN(CC1CCCO1)S(=O)(=O)c1ccc(S(=O)(=O)NCC2CCCO2)cc1)Nc1ccccc1` (stereo not drawn), the AC50 [2] was 11.2 µM [rising, single point].
In the case of `Cc1cccc(OCC(=O)N/N=C\C=C\c2ccc3c(c2)OCO3)c1C`, the AC50 [1] was 20 µM [falling, partial curve, poor fit].
For `CC(=NCc1ccc2c(c1)OCO2)C1=C(O)c2ccccc2C1=O`, the AC50 [1] was 35.5 µM [rising, single point].
In the case of `O=C(COc1ccc(Br)cc1Cl)NC(=S)N1CCc2ccccc21`, the AC50 [1] was 35.5 µM [rising, single point].
In the case of `Brc1ccc(/C=N/Nc2ccccc2)cc1`, the AC50 [2] was 15.8 µM [rising, partial curve, poor fit] and the AC50 [1] was 15.8 µM [rising, partial curve, poor fit].
With `CCCc1cc(=O)[nH]c(SCc2cc(=O)oc3cc(C)c(C(C)C)cc23)n1` the AC50 [2] was 15.8 µM [rising, partial curve] and the AC50 [1] was 22.4 µM [rising, partial curve].
For `O=C(CNC(=O)c1ccccc1)OCc1cc(=O)n2nc(C3CC3)sc2n1`, the AC50 [2] was 0.00501 µM [falling, full curve, poor fit] and the AC50 [1] was 0.00316 µM [falling, full curve, poor fit].
In the case of `COc1ccccc1NC(=O)c1cc2n(n1)C(C(F)(F)F)CC(c1ccc3c(c1)OCO3)N2` (stereo not drawn), the AC50 [1] was 35.5 µM [rising, single point].
For `Cc1cc(/C=N/NC(=O)c2c(Br)cnn2C)c(C)n1-c1cccc(Br)c1`, the AC50 [2] was 35.5 µM [rising, single point] and the AC50 [1] was 35.5 µM [rising, single point].
For `O=C(NCCN1CCOCC1)c1cc(-c2cccs2)on1`, the AC50 [2] was 35.5 µM [falling, single point] and the AC50 [1] was 25.1 µM [falling, single point].
With `CCCCN1C(=O)C(=Nc2cccc3cnccc23)c2ccccc21` the AC50 [2] was 2 µM [rising, partial curve, poor fit].
For `O=C(N/N=C/c1cn(-c2cccs2)nc1-c1ccccc1)c1ccc(O)cc1`, the AC50 [1] was 35.5 µM [rising, single point].
With `CCC1CCCCN1C(=O)CCS(=O)(=O)c1cc2c(cc1C)NC(=O)CO2` (stereo not drawn) the AC50 [2] was 7.94 µM [falling, partial curve].
In the case of `COc1ccccc1CNC(=O)CC1Sc2ccccc2NC1=O` (stereo not drawn), the AC50 [2] was 20 µM [falling, partial curve, poor fit] and the AC50 [1] was 12.6 µM [falling, partial curve, poor fit].
With `C=C(C)c1cccc(C(C)(C)NC(=O)N2CCC(C(N)=O)CC2)c1` the AC50 [2] was 0.126 µM [rising, full curve].
With `Cc1cccc(/C=N/NC(=O)NC2CCCCC2)c1` the AC50 [1] was 12.6 µM [rising, single point].
With `COc1ccc2cc(CCN3C(=O)c4ccccc4C3=O)c(=O)[nH]c2c1` the AC50 [1] was 4.47 µM [rising, single point].
For `Cc1ccc(NC(=O)c2c([N+](=O)[O-])c(C(C)(C)C)nn2C)c(C)c1`, the AC50 [2] was 11.2 µM [rising, partial curve] and the AC50 [1] was 35.5 µM [rising, single point].
For `COc1ccc2nc(SCC(=O)Nc3ccccc3OC)[nH]c2c1`, the AC50 [1] was 22.4 µM [falling, single point].
In the case of `COc1ccc(Br)cc1/C=C/C(=O)c1ccc(NC(C)=O)cc1`, the AC50 [2] was 11.2 µM [falling, partial curve, poor fit] and the AC50 [1] was 35.5 µM [falling, single point].
With `NC(=S)N/N=C/c1cccc(O)c1O` the AC50 [2] was 3.55 µM [falling, full curve, poor fit] and the AC50 [1] was 5.62 µM [falling, single point].
For `Cc1cc(C)cc(-n2c(SCC(=O)N3CCCCCC3)nc3c([nH]c4ccccc43)c2=O)c1`, the AC50 [2] was 0.0562 µM [rising, full curve, poor fit] and the AC50 [1] was 0.0631 µM [rising, full curve, poor fit].
In the case of `Cc1ccccc1Nc1cc(=O)oc2ccccc12`, the AC50 [2] was 11.2 µM [rising, partial curve] and the AC50 [1] was 14.1 µM [rising, single point].
